# Results from one PubChem assay

Source: PubChem BioAssay AID504749 (NCATS, 2011).

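A panel of P. falciparum strains inside erythrocytes is exposed to compounds for three days, then a DNA-binding dye reports the amount of parasite DNA.
Each compound was titrated across a series from about 0.000037 to 29 µM.
The number is the fitted AC50, the concentration giving a half-maximal change in signal; a lower value means higher potency, whether the curve shows a decrease or an increase.
Calls follow the curve class and fit quality: every row here is inconclusive, covering signal-raising curves and weak, poorly fitted, partial or highest-dose-only inhibition curves.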

Values are in µM.
All entries here are filed as inconclusive.
Only part of the assay is shown, chiefly results filed as inconclusive.
A potency from a partial, single-point or poor curve is only a rough figure.
An entry listed twice with the same setting is a separate test.

CC(C)(C)c1cc(O)ccc1O [AS120] read Potency 10 µM (inhibitor, single point). Result for CC(C)(C)c1cc(O)ccc1O [CP201] was Potency 15.1 µM (inhibitor, single point). With CC(C)(C)c1cc(O)ccc1O [PC49] the assay gave Potency 12.59 µM (inhibitor, single point). Result for CC(C)(C)c1cc(O)ccc1O [CP269] was Potency 15.1 µM (inhibitor, single point). For CC(C)(C)c1cc(O)ccc1O [SC27B] the result was Potency 12.59 µM (inhibitor, single point). With CC(C)(C)c1cc(O)ccc1O [N140] the assay gave Potency 11.22 µM (inhibitor, single point).

With CC(C)(C)c1cc(O)ccc1O [ECU] the assay gave Potency 11.22 µM (inhibitor, single point). For CC(C)(C)c1cc(O)ccc1O [CP325] the result was Potency 19.01 µM (inhibitor, single point). CC(C)(C)c1cc(O)ccc1O [FAB9] gave Potency 11.22 µM (inhibitor, single point). For CC(C)(C)c1cc(O)ccc1O [CP250] the result was Potency 17.78 µM (inhibitor, single point). With CC(C)(C)c1cc(O)ccc1O [CP305] the assay gave Potency 13.46 µM (inhibitor, single point). Result for CC(C)(C)c1cc(O)ccc1O [CP238] was Potency 17.78 µM (inhibitor, single point).

CC(C)(C)c1cc(O)ccc1O [PC49] gave Potency 11.22 µM (inhibitor, single point). CC(C)(C)c1cc(O)ccc1O [CP286] gave Potency 17.78 µM (inhibitor, single point). For CC(C)Oc1ccc2c(=O)cc(-c3ccccc3)oc2c1 [CP250] the result was Potency 11.22 µM (inhibitor, partial curve, poor fit). CC(C)Oc1ccc2c(=O)cc(-c3ccccc3)oc2c1 [CP297] read Potency 7.569 µM (inhibitor, partial curve, poor fit). With CC(C)Oc1ccc2c(=O)cc(-c3ccccc3)oc2c1 [GB4] the assay gave Potency 19.01 µM (inhibitor, partial curve, poor fit). CC(C)Oc1ccc2c(=O)cc(-c3ccccc3)oc2c1 [P93_24] read Potency 3.981 µM (inhibitor, single point).

Result for CC(C)Oc1ccc2c(=O)cc(-c3ccccc3)oc2c1 [parasite line B] was Potency 14.13 µM (inhibitor, partial curve). For C[C@@H](CN(C)C)CN1c2ccccc2Sc2ccccc21 [PC26] the result was Potency 5.726 µM (inhibitor, partial curve). C[C@@H](CN(C)C)CN1c2ccccc2Sc2ccccc21 [CP194] read Potency 3.612 µM (inhibitor, partial curve). For C[C@@H](CN(C)C)CN1c2ccccc2Sc2ccccc21 [CP269] the result was Potency 2.031 µM (inhibitor, partial curve, poor fit). With C[C@@H](CN(C)C)CN1c2ccccc2Sc2ccccc21 [CP201] the assay gave Potency 5.726 µM (inhibitor, partial curve, poor fit). With C[C@@H](CN(C)C)CN1c2ccccc2Sc2ccccc21 [DIV30] the assay gave Potency 7.208 µM (inhibitor, single point).

For C[C@@H](CN(C)C)CN1c2ccccc2Sc2ccccc21 [ICS] the result was Potency 1.995 µM (inhibitor, single point). C[C@@H](CN(C)C)CN1c2ccccc2Sc2ccccc21 [CP203] read Potency 3.22 µM (inhibitor, partial curve). C[C@@H](CN(C)C)CN1c2ccccc2Sc2ccccc21 [GB4] gave Potency 4.053 µM (inhibitor, partial curve). For COc1cc(NS(C)(=O)=O)ccc1Nc1c2ccccc2nc2ccccc12 [Dd2] the result was Potency 3.981 µM (inhibitor, partial curve, poor fit). Result for COc1cc(NS(C)(=O)=O)ccc1Nc1c2ccccc2nc2ccccc12 [GB4] was Potency 0.151 µM (inhibitor, full curve, poor fit). For CN(C)C(=O)CCSC(SCCC(=O)O)c1cccc(/C=C/c2ccc3ccc(Cl)cc3n2)c1 (stereo not shown) [DIV14] the result was Potency 16.94 µM (inhibitor, single point).

CN(C)C(=O)CCSC(SCCC(=O)O)c1cccc(/C=C/c2ccc3ccc(Cl)cc3n2)c1 (stereo not shown) [PC26] read Potency 16.94 µM (inhibitor, single point).

2 of the entries, repeated:

CC(C)Oc1ccc2c(=O)cc(-c3ccccc3)oc2c1 [CP250] gave Potency 11.22 µM (inhibitor, partial curve, poor fit).
C[C@@H](CN(C)C)CN1c2ccccc2Sc2ccccc21 [ICS] gave Potency 1.995 µM (inhibitor, single point).